Values of other authors, collected in patent publication US20070099911A1, “Pyrroloquinolinone derivatives as 5-hydroxytryptamine-6 ligands” (Wyeth, priority 2005, published 2007).
For at least one compound, name, drawing or mass did not settle the structure.

Tested on: 5-HT6 receptor subtype
Settings: background statement, Branchek et al. 2000; cited from earlier work

Compound: CN1CCN(C2=Nc3cc(Cl)ccc3Nc3ccccc32)CC1 [clozapine]
- affinity for the 5-HT6 receptor subtype: high affinity
